Results from patent publication US20230365577A1, “Photodynamic Therapy and Diagnosis” (RMW CHO Group Limited, priority 2020, published 2023).
Some results were stated once for a whole list of compounds, not compound by compound. Some ranges recur; such a range may be that of the whole group of compounds.

test system: SKOV3 cells; assay: Cellular uptake and retention (intrinsic fluorescence); format: cell-based, Human; conditions: SKOV3, after 2 hours incubation
Description: Based on the increased phototoxicity of compound 1c versus compound 1, it was assessed whether this salt substitution alters cellular uptake or retention over time. SKOV3 cells were incubated for up 24 hours in the presence of either compound 1 or 1c (as previously described). At defined time intervals (FIG. 5) the media was aspirated, replaced with sterile PBS, and cells imaged for fluorescence (Ex 405 nm/Em 660 nm) using a Cytation 3 Multimode Plate Reader (Biotek). After 24 hours the media was aspirated, replaced with fresh media and the loss of cellular fluorescence similarly monitored. All images (minimum 100 cells per time point) were then quantitatively analysed (Gen5.0 software) and an average fluorescence/cell/time point determined. Average fluorescence measurements were normalised against the maximum average value measured for each photosensitizer, and plotted as percent total fluorescence (mean±SD) overtime.
The uptake and retention of compounds 1 and 2 was compared in SKOV3 cancer cells over a 48 hour period. SKOV3 cells were incubated for up 24 hours in the presence of either compound 1 or 2 (as previously described). At defined time intervals (FIG. 6) the media was aspirated, replaced with sterile PBS, and cells imaged for fluorescence (Ex 405 nm/Em 660 nm) using a Cytation 3 Multimode Plate Reader (Biotek). After 24 hours the media was aspirated, replaced with fresh media and the loss of cellular fluorescence similarly monitored. All images (minimum 100 cells per time point) were then quantitatively analysed (Gen5.0 software) and an average fluorescence/cell/time point determined. Average fluorescence measurements were normalised against the maximum average value measured for each photosensitizer, and plotted as percent total fluorescence (mean±SD) over time.
Phyllochlorin was functionalised with saccharidyl groups (glucose or mannose) using various configurations, and the effects on rate of uptake by cells assessed over a 4 hour incubation period as above. […]

**Q.** How did the “Percent of maximal uptake” value turn out when `C=Cc1c(C)c2cc3nc(c(C)c4cc(C)c(cc5nc(cc1[nH]2)C(C)=C5CC)[nH]4)[C@@H](CCC(=O)N(C)CCCS[C@@H]1O[C@H](CO)[C@@H](O)[C@H](O)[C@H]1O)[C@@H]3C` [Compound 6, 3-((7S,8S)-18-ethyl-2,5,8,12,17-pentamethyl-13-vinyl-7H,8H-porphyrin-7-yl)-N-methyl-N-(3-(((2S,3R,4S,5S,6R)-3,4,5-trihydroxy-6-(hydroxymethyl)tetrahydro-2H-pyran-2-yl)thio)propyl)propanamide] was run?
**A.** The value was 57-68%.

**Q.** For `C=Cc1c(C)c2cc3nc(c(C)c4cc(C)c(cc5nc(cc1[nH]2)C(C)=C5CC)[nH]4)[C@@H](CCC(=O)N(C)CCCCCS[C@@H]1O[C@H](CO)[C@@H](O)[C@H](O)[C@H]1O)[C@@H]3C` [Compound 8, 3-((7S,8S)-18-ethyl-2,5,8,12,17-pentamethyl-13-vinyl-7H,8H-porphyrin-7-yl)-N-methyl-N-(5-(((2S,3R,4S,5S,6R)-3,4,5-trihydroxy-6-(hydroxymethyl)tetrahydro-2H-pyran-2-yl)thio)pentyl)propanamide], which “Percent of maximal uptake” value is on record?
**A.** The value was 57-68%.

**Q.** `C=Cc1c(C)c2cc3nc(c(C)c4cc(C)c(cc5nc(cc1[nH]2)C(C)=C5CC)[nH]4)[C@@H](CCC(=O)N(C)CCCS[C@@H]1O[C@H](CO)[C@@H](O)[C@H](O)[C@@H]1O)[C@@H]3C` [Compound 17, phyllochlorin β-D-1-thiomannose-N-methylpropylamide conjugate] was tested. Which “Percent of maximal uptake” value did it give?
**A.** Its value is 57-68%.
